Experiment [1] addresses GST-MUC1-CD (MUC1-C cytoplasmic domain) (UniProt P15941). As to the kind of experiment: pull-down; GST, GST-MUC1-CD or GST-MUC1-CD fragments incubated with His-CD44-ICD, purified proteins, 2 h at room temperature; adsorbates to glutathione-conjugated beads immunoblotted with anti-CD44; both purified.
The target of experiment [2] is GST-CD44-ICD (CD44 intracellular domain) (human (RT-PCR from SK-CO-1 cells)) (UniProt P16070). As to the kind of experiment: pull-down; GST, GST-CD44-ICD or GST-CD44-ICD fragments incubated with MUC1-CD (GST removed with thrombin), purified proteins, 2 h at room temperature; adsorbates to glutathione-conjugated beads immunoblotted with anti-MUC1-C; both purified.

By UniProt entry, the sequences of proteins in these tests, tags left out. Where a name states a change or a piece, a line headed by the entry shows the natural chain unless it says otherwise. Residues count along the entry.
UniProt P15941, residues 1182-1255: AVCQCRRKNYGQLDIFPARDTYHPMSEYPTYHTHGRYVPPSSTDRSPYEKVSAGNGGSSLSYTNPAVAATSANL
UniProt P16070: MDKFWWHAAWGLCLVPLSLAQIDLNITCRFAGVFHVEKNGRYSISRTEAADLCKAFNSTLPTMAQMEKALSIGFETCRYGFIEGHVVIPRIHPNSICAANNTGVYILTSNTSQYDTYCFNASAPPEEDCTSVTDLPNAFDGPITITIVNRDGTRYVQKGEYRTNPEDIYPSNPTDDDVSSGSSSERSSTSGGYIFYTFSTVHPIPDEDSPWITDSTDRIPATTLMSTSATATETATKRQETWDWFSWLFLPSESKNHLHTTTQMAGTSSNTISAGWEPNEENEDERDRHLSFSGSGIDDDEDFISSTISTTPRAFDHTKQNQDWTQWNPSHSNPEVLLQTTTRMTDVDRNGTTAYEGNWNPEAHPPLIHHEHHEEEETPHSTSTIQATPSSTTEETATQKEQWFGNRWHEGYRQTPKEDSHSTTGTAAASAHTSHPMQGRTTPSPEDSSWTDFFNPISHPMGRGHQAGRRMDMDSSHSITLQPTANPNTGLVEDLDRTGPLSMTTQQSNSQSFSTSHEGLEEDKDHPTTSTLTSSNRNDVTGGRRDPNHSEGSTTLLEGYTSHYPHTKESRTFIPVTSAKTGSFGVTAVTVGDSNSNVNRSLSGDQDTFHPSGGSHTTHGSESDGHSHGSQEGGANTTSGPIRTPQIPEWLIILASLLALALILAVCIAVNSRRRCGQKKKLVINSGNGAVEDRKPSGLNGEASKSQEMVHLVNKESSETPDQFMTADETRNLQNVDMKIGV

Results are given in words; binding and its absence hold for the method and conditions named. A result given as binding can be weak or reduced; the word gives no strength.

As for “His-CD44-ICD (CD44 intracellular domain) (from UniProt P16070) (domain or fragment)”, the binding result in experiment [1] was “binds”.

Consider “MUC1-CD (MUC1-C cytoplasmic domain, GST moiety removed with thrombin) (from UniProt P15941 1182-1255) (domain or fragment)”, for which the binding entry in experiment [2] is recorded as “binds”.
